Reference: paper PMC4353692
Results are given in words; binding and its absence hold for the method and conditions named.

Protein sequences, listed by entry. Tags and fused reporters are not part of them.
UniProt Q25531: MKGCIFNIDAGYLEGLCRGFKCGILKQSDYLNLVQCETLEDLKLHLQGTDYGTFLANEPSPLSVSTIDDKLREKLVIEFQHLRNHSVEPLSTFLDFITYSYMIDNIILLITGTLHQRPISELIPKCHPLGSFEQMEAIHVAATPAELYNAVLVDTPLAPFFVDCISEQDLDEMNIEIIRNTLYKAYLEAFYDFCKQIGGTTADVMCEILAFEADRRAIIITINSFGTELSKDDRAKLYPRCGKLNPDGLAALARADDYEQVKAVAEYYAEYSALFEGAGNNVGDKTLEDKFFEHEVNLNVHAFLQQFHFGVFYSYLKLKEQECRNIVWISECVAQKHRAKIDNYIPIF
UniProt Q9U5N1: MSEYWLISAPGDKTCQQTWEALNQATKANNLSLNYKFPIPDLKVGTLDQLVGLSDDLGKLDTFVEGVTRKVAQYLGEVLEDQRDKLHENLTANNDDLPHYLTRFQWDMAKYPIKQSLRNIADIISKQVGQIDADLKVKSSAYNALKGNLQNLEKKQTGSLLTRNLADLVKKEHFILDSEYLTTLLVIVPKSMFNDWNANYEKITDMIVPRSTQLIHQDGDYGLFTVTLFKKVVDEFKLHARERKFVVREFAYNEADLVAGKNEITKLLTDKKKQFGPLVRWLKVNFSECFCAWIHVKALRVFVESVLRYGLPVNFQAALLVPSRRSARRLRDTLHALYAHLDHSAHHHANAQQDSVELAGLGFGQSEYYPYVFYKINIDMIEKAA

Molecular target: Manduca sexta V-ATPase subunit d (Manduca sexta (endogenous in midgut)) (UniProt Q25531)
Experiment: cryo-EM structure; M. sexta V-ATPase holoenzyme purified from tissue, in C12E10; 9.4 Å reconstruction (gold standard FSC 0.143); homology models of the subunits flexibly fitted by MDFF; side chains not resolved; both purified

binding: no binding
Substance: Manduca sexta V-ATPase subunit C (from UniProt Q9U5N1 1-385)
